The record followed here is PMC4373099.

Protein sequences, listed by entry. Tags and fused reporters are not part of them.
UniProt O14980: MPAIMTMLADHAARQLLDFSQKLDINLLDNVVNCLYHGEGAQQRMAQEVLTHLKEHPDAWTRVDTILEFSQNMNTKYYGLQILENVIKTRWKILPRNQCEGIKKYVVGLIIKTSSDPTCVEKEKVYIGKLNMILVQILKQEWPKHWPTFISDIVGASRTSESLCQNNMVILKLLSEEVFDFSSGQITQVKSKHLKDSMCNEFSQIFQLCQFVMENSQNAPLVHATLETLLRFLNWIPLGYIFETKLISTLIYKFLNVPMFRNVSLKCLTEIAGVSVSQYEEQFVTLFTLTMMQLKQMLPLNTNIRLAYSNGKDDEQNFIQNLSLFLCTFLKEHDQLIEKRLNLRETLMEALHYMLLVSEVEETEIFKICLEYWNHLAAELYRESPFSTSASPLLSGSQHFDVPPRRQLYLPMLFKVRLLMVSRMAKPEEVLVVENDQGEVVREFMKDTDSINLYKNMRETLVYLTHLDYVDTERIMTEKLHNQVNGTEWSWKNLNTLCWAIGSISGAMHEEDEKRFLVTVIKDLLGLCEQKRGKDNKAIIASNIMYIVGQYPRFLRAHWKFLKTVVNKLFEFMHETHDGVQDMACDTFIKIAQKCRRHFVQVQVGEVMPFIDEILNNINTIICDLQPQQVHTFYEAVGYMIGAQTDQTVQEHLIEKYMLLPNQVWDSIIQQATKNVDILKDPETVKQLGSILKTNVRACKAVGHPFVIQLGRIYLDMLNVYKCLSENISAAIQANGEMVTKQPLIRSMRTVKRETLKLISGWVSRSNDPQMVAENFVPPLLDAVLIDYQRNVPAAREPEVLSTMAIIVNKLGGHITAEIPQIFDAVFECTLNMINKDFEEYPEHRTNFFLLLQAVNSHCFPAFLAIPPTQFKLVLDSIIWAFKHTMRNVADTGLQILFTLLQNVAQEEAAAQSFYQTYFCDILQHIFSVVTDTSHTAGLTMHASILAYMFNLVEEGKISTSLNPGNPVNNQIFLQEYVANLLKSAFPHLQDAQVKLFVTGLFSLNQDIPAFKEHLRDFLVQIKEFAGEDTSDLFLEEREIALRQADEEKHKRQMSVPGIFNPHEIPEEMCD

In experiment [1] the target is T1, GST-tagged Mps1 (human) (UniProt P33981).
T1 sequence: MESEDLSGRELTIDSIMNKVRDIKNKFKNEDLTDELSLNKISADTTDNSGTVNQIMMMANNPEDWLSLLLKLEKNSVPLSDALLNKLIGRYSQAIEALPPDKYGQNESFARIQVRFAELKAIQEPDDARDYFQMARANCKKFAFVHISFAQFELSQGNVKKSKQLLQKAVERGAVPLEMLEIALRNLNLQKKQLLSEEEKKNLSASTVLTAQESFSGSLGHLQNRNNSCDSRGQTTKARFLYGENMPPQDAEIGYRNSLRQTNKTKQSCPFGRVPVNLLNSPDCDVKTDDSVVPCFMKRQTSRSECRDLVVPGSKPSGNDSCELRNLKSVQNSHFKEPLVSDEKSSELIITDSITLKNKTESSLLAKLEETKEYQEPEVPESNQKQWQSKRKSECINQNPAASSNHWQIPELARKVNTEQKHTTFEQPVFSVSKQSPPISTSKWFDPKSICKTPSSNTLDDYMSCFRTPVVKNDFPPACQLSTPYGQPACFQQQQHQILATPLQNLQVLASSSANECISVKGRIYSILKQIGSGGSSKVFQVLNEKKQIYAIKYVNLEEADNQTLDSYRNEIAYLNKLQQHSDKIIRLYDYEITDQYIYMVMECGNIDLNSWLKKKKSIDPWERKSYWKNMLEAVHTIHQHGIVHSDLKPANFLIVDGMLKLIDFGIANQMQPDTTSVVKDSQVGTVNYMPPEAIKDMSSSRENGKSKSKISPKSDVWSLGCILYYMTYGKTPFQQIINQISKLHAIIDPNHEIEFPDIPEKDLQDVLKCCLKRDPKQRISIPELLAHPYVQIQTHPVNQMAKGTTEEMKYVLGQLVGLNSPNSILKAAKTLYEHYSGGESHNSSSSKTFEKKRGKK
The experiment is described as follows: pull-down; GST-Mps1 on GST beads incubated with His-Crm1; room temperature 2 h, 3 hrs in lysis buffer; beads washed 3x; western blot; both purified. For orientation: A western blot detects proteins with antibodies after separation by electrophoresis.

Experiment [2] has as its target T2, myc-Mps1 (mono-polar spindles-1, TTK) (human) (UniProt P33981).
T2 sequence: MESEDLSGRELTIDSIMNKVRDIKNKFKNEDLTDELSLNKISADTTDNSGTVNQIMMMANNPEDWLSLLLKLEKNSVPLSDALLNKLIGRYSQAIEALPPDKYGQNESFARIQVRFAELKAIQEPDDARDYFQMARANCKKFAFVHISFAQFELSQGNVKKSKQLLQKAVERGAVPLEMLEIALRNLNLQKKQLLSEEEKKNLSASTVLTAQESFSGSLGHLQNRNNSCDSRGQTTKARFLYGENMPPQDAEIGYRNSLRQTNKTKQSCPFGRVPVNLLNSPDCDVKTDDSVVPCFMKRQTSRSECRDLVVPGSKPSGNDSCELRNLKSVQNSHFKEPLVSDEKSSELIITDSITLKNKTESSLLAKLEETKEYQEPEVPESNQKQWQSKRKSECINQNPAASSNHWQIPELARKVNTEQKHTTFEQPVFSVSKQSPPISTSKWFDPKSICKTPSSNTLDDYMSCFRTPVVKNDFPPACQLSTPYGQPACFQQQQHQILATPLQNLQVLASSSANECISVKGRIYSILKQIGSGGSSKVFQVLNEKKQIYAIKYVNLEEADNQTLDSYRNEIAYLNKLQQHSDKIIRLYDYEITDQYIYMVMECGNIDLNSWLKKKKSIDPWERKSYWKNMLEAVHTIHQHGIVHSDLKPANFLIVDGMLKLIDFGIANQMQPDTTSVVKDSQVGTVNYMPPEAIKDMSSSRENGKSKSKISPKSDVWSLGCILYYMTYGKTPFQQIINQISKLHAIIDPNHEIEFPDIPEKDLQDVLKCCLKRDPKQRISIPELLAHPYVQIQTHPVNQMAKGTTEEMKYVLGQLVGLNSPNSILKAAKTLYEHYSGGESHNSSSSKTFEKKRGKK
The experiment is described as follows: co-IP; 293 T cells co-transfected with pEXL-FTH-Crm1 and pRK5-myc-Mps1, collected after 48 h for immuno-precipitation; which protein was precipitated not given.

Experiment [3] addresses 6x His-tagged Crm1 (UniProt O14980). The experiment is described as follows: pull-down; reciprocal: bead bound His-Crm1 incubated with non-tagged Mps1; same standard protocol; western blot; both purified.

These are yes or no findings as the source states them, for the method shown. For part of these data: In cells and extracts the contact can be indirect. Some results given as binding are weak or reduced against the parent protein; the word gives no strength. Where a sequence is shown, tags or fusion partners need not be part of it.

As for “6x His-tagged Crm1 (from UniProt O14980 1-1071)”, in experiment [1], the binding entry was “binds”.

For “FTH-Crm1 (Chromosome region maintenance 1) (from UniProt O14980 1-1071)”, the binding result in experiment [2] is listed as “binds”.

B1: non-tagged Mps1 (protein, UniProt P33981 1-857)
chain: MESEDLSGRELTIDSIMNKVRDIKNKFKNEDLTDELSLNKISADTTDNSGTVNQIMMMANNPEDWLSLLLKLEKNSVPLSDALLNKLIGRYSQAIEALPPDKYGQNESFARIQVRFAELKAIQEPDDARDYFQMARANCKKFAFVHISFAQFELSQGNVKKSKQLLQKAVERGAVPLEMLEIALRNLNLQKKQLLSEEEKKNLSASTVLTAQESFSGSLGHLQNRNNSCDSRGQTTKARFLYGENMPPQDAEIGYRNSLRQTNKTKQSCPFGRVPVNLLNSPDCDVKTDDSVVPCFMKRQTSRSECRDLVVPGSKPSGNDSCELRNLKSVQNSHFKEPLVSDEKSSELIITDSITLKNKTESSLLAKLEETKEYQEPEVPESNQKQWQSKRKSECINQNPAASSNHWQIPELARKVNTEQKHTTFEQPVFSVSKQSPPISTSKWFDPKSICKTPSSNTLDDYMSCFRTPVVKNDFPPACQLSTPYGQPACFQQQQHQILATPLQNLQVLASSSANECISVKGRIYSILKQIGSGGSSKVFQVLNEKKQIYAIKYVNLEEADNQTLDSYRNEIAYLNKLQQHSDKIIRLYDYEITDQYIYMVMECGNIDLNSWLKKKKSIDPWERKSYWKNMLEAVHTIHQHGIVHSDLKPANFLIVDGMLKLIDFGIANQMQPDTTSVVKDSQVGTVNYMPPEAIKDMSSSRENGKSKSKISPKSDVWSLGCILYYMTYGKTPFQQIINQISKLHAIIDPNHEIEFPDIPEKDLQDVLKCCLKRDPKQRISIPELLAHPYVQIQTHPVNQMAKGTTEEMKYVLGQLVGLNSPNSILKAAKTLYEHYSGGESHNSSSSKTFEKKRGKK
As for B1, the binding result in experiment [3] is recorded as “binds”.
